Our source for the binding values is PMC7193404.

Amino acid sequences for entries named in this document (tags omitted). Residues count along the entry.
UniProt P21802, residues 22-377: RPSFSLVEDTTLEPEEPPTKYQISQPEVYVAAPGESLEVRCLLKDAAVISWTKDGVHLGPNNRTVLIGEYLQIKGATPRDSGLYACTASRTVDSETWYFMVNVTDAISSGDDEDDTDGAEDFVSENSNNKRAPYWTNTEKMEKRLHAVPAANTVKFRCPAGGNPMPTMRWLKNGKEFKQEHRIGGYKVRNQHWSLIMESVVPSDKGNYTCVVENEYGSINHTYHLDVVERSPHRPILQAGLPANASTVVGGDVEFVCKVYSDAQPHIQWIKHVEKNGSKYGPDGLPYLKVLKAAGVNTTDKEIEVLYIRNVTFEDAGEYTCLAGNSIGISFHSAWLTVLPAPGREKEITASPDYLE
UniProt P22455, residues 22-369: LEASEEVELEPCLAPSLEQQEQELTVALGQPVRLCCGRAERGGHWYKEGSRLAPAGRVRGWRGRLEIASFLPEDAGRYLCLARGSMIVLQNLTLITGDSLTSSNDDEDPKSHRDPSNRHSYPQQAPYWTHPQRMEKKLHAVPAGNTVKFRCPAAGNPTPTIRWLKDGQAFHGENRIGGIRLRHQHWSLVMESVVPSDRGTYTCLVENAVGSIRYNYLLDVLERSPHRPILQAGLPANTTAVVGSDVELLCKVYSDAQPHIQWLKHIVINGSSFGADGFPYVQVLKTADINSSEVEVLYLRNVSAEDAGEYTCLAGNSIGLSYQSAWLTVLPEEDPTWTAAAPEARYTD
UniProt P22607, residues 23-375: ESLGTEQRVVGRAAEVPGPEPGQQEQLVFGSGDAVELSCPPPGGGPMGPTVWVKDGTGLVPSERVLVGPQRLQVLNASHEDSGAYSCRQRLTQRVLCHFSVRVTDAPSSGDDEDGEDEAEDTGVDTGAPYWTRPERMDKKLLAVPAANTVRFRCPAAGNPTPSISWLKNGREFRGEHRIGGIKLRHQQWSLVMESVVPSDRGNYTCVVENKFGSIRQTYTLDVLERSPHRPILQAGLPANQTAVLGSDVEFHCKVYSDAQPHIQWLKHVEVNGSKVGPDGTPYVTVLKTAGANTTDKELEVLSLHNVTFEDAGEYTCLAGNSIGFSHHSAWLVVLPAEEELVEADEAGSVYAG
UniProt P11362, residues 22-376: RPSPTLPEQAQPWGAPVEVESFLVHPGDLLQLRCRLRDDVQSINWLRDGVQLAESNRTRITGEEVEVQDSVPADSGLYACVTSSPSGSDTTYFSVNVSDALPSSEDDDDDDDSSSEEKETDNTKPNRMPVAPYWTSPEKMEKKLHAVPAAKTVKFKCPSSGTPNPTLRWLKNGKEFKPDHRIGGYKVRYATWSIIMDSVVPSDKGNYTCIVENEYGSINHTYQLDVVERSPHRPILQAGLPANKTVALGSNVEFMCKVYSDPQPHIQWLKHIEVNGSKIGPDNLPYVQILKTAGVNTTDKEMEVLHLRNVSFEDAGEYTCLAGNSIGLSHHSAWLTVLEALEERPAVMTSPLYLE

Results are given in words; binding and its absence hold for the method and conditions named. Some entries that bind do so weakly or less than the wild type.

This assay concerns the target T1, fibroblast growth factor homologous factor 1, short isoform (FHF1b) (human) (UniProt P61328).
T1 sequence: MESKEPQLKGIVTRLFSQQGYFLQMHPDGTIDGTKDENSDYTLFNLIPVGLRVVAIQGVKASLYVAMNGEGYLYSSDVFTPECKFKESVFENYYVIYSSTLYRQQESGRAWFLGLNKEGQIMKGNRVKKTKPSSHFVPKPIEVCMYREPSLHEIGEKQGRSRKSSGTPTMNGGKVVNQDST
The assay can be described thus: ELISA; FGF1 or FHF1 (0.05 uM) coated on Maxisorp plate, blocked with 3% BSA; FGFR-Fc in solution; washes in TBST pH 7.5; detected with anti-human IgG (Fc)-HRP, TMB, absorbance at 450 nm; both purified. A general note: An ELISA detects its analyte on a solid surface through an enzyme-linked reagent.
On to “extracellular region of FGFR2 fused to the Fc fragment (from UniProt P21802 22-377) (Fc fusion)”, for which the binding entry is reported as “binds”.

Take “extracellular region of FGFR4 fused to the Fc fragment (from UniProt P22455 22-369) (Fc fusion)”: the binding entry is on record as “binds”.

Turning to “extracellular region of FGFR3 fused to the Fc fragment (from UniProt P22607 23-375) (Fc fusion)”, the binding result is on record as “binds”.

Turning to “extracellular region of FGFR1 fused to the Fc fragment (from UniProt P11362 22-376) (Fc fusion)”, the binding entry is listed as “binds”.
